# Results published in the supplement of paper PMC11409438.
# Counter-ions that a name gives are not always drawn. Some of the results follow. Repeats are few or missing, and single values can be far off.
# Columns and labels:
# [1] = tested on: Caenorhabditis elegans ST65 (ncIs13[ajm-1::GFP]); test: 'Larvae/adult' ratio (MetaXpress pharynx counts; minimum value 1, so it appears to include adults; growth inhibition read-out); details: 10 µM; exposure time: 4-5 days from L1 at 20°C
# [2] = tested on: Caenorhabditis elegans ST65 (ncIs13[ajm-1::GFP]); test: vulvae per adult worm (MAPK/ERK-dependent vulval induction, MetaXpress) (vulvae/adult); higher = more vulval induction (less MAPK/ERK inhibition); details: 10 µM; exposure time: 4-5 days from L1 at 20°C
Compound,'Larvae/adult' ratio [1],vulvae per adult worm [2]
O=C(NC[C@H](O)CN1CCc2ccccc2C1)c1cc(NC2COC2)ncn1,1.97,1.1
O=C(c1cc(Cc2n[nH]c(=O)c3ccccc23)ccc1F)N1CCN(C(=O)C2CC2)CC1,2.36,0.84
Cc1nc(Nc2ncc(C(=O)Nc3c(C)cccc3Cl)s2)cc(N2CCN(CCO)CC2)n1 [Dasatinib],1.62,0.917
NC1(c2ccc(-c3nc4ccn5c(=O)[nH]nc5c4cc3-c3ccccc3)cc2)CCC1,2,1.03
CCn1c(-c2nonc2N)nc2c(C#CC(C)(C)O)ncc(OC[C@H]3CCCNC3)c21,2.75,1
COc1cc2c(NC3CCN(C(C)C)CC3)nc(C3CCCCC3)nc2cc1OCCCN1CCCC1,3,0.759
CC(=O)Nc1cccc(-n2c(=O)n(C3CC3)c(=O)c3c(Nc4ccc(I)cc4F)n(C)c(=O)c(C)c32)c1,1.82,0.0714
c1cc(CN2CCCNCCNCCCNCC2)ccc1CN1CCCNCCNCCCNCC1 [Plerixafor (AMD3100)],2.53,1.12
COC[C@H](NC(=O)c1cnc(C)s1)C(=O)N[C@@H](COC)C(=O)N[C@@H](Cc1ccccc1)C(=O)[C@@]1(C)CO1 [Oprozomib (ONX 0912)],2.69,0.914
CC(C)(C)c1cc(NC(=O)Nc2ccc(Oc3ccnc4[nH]c(=O)cnc34)cc2F)n(-c2ccccc2)n1,2.47,1.03
O=C1CN2Cc3c(ccc(Cl)c3Cl)N=C2N1 [Anagrelide HCl],2.12,1
CNc1nc(Nc2cn(C(C)(C)C#N)nc2C)ncc1C(F)(F)F,2.56,1.03
Cc1ccc(C(=O)Nc2ccc(CN3CCN(C)CC3)c(C(F)(F)F)c2)cc1C#Cc1cnc2cccnn12,3.6,0.2
Nc1ccn([C@@H]2O[C@H](CO)[C@@H](O)[C@@H]2O)c(=O)n1 [Cytarabine],1.71,0.868
O=C(c1cccc(Cl)c1F)N1CCN(Cc2cccc(Nc3nccs3)n2)CC1,2.03,0.667
Cc1[nH]c2ccccc2c1CCNCc1ccc(/C=C/C(=O)NO)cc1 [Panobinostat (LBH589)],2.02,0.915
CCOC(=O)CCNc1cc(N2CCc3ccccc3CC2)nc(-c2ccccn2)n1,2.95,0.286
Oc1nc(-c2ccc(C(F)(F)F)cc2)nc2c1CSCC2,1.51,0.843
NC[C@@](O)(c1ccc(Cl)cc1)c1ccc(-c2cn[nH]c2)cc1,2.23,1.31
CC(C)(C)c1cc(NC(=O)Nc2ccc(-c3cn4c(n3)sc3cc(OCCN5CCOCC5)ccc34)cc2)no1 [Quizartinib (AC220)],3.39,1.1
"CC1(C)CCC(CN2CCN(c3ccc(C(=O)NS(=O)(=O)c4ccc(NCC5CCOCC5)c([N+](=O)[O-])c4)c(Oc4cnc5[nH]ccc5c4)c3)CC2)=C(c2ccc(Cl)cc2)C1 [Venetoclax (ABT-199, GDC-0199)]",2.41,0.897
Cc1ccc(C(=O)Nc2ccc(Oc3cc4cnn(C)c4cc3-c3cn[nH]c3)c(F)c2)c(=O)n1-c1ccc(F)cc1,3.06,0.806

Compound,'Larvae/adult' ratio [1],vulvae per adult worm [2]
Nc1ccccc1NC(=O)c1ccc(CNC(=O)OCc2cccnc2)cc1 [Entinostat (MS-275)],1.72,0.755
O=C(CCNC(=O)c1ccc(OC(F)(F)F)cc1)N[C@@H]1CCCc2ccccc21,2.2,1.07
C[C@@H]1C[C@H]2[C@@H]3CCC4=CC(=O)C=C[C@]4(C)[C@@]3(F)[C@@H](O)C[C@]2(C)[C@@]1(O)C(=O)CO [Dexamethasone (DHAP)],1.68,0.818
CC(C)N(CCCNC(=O)Nc1ccc(C(C)(C)C)cc1)C[C@H]1O[C@@H](n2cc(Br)c3c(N)ncnc32)[C@H](O)[C@@H]1O,1.73,0.911
CN[C@@H](C)C(=O)N[C@H]1CN(C(=O)CC(C)C)CC[C@H]2CC[C@@H](C(=O)NC(c3ccccc3)c3ccccc3)N2C1=O,1.87,0.711
COc1ccc(S(=O)(=O)Nc2cccnc2Nc2ccc(O)cc2)cc1,1.52,0.81
C[C@]12C=CC(=O)C=C1CC[C@@H]1[C@@H]2[C@@H](O)C[C@@]2(C)[C@H]1CC[C@]2(O)C(=O)CO [Prednisolone],1.71,1
CC1(C)OCCn2c1nc1c(N3CCOCC3)nc(-c3cnc(N)nc3)nc12,2.41,0.971
NC(=O)c1cccc2cn(-c3ccc([C@@H]4CCCNC4)cc3)nc12 [Niraparib (MK-4827)],1.57,0.925
NC(=O)N1CCC(CC(=O)N2CCC([C@H]3c4ncc(Br)cc4CCc4cc(Cl)cc(Br)c43)CC2)CC1 [Lonafarnib],2,0.778
CCN(CC)CCCC(C)Nc1c2ccc(Cl)cc2nc2ccc(OC)cc12 (stereo not drawn) [Quinacrine Dihydrochloride Dihydrate],5.51,0.721
CNS(=O)(=O)Nc1nccc(Cc2c(C)c3ccc(Oc4ncccn4)cc3oc2=O)c1F,1.36,0
O=C(/C=C\n1cnc(-c2cc(C(F)(F)F)cc(C(F)(F)F)c2)n1)NNc1cnccn1 [Selinexor (KPT-330)],1.87,0.645
COCCNCc1ccc(-c2cc3nccc(Oc4ccc(NC(=O)C5(C(=O)Nc6ccc(F)cc6)CC5)cc4F)c3s2)nc1 [Sitravatinib (MGCD516)],2.07,0.951
CC(C)Oc1ccc(C(=O)N[C@H](CNC(=O)CN(C)C)Cc2ccc(-c3cn4cccc([C@H](C)O)c4n3)cc2)cc1Cl,3,1.06
"Cc1cc(Nc2cc(N3CCN(C)CC3)nc(Sc3ccc(NC(=O)C4CC4)cc3)n2)n[nH]1 [Tozasertib (VX-680, MK-0457)]",2.33,0.822
COc1cc(Nc2ncc(F)c(Nc3ccc4c(n3)N(COP(=O)(O)O)C(=O)C(C)(C)O4)n2)cc(OC)c1OC [Fostamatinib (R788)],2.45,1.34
CC(C)NC[C@@H](C(=O)N1CCN(c2ncnc3c2[C@H](C)C[C@H]3O)CC1)c1ccc(Cl)cc1 [Ipatasertib (GDC-0068)],1.8,1
NCCNc1ccc(NCCN)c2c1C(=O)c1ccncc1C2=O [Pixantrone Maleate],1.96,1
CC1=C(/C=C/C(C)=C/C=C/C(C)=C/C(=O)O)C(C)(C)CCC1 [Tretinoin],3.25,0.75
Cc1ccc(-n2nc(C(C)(C)C)cc2NC(=O)Nc2ccc(OCCN3CCOCC3)c3ccccc23)cc1 [Doramapimod (BIRB 796)],1.56,0.778
O=C1NC(=O)[C@@H](c2cn3c4c(cccc24)CCC3)[C@@H]1c1c[nH]c2ccccc12 [Tivantinib (ARQ 197)],2.77,0.923

Compound,'Larvae/adult' ratio [1],vulvae per adult worm [2]
Clc1ccc(C(c2ccccc2Cl)C(Cl)Cl)cc1 (stereo not drawn) [Mitotane],2.14,0.5
CCS(=O)(=O)N1CC(CC#N)(n2cc(-c3ncnc4[nH]ccc34)cn2)C1,2.25,0.875
Cc1cc(Nc2ncc(Cl)c(Nc3ccccc3S(=O)(=O)C(C)C)n2)c(OC(C)C)cc1C1CCNCC1 [Ceritinib (LDK378)],1.9,0.825
CCC1=C[C@@H]2CN(C1)Cc1c([nH]c3ccccc13)[C@@](C(=O)OC)(c1cc3c(cc1OC)N(C)[C@H]1[C@@](O)(C(=O)OC)[C@H](OC(C)=O)[C@]4(CC)C=CCN5CC[C@]31[C@@H]54)C2 [Vinorelbine Tartrate],1.71,1.29
CN(C)C[C@@H]1CCn2cc(c3ccccc32)C2=C(C(=O)NC2=O)c2cn(c3ccccc23)CCO1,1.59,0.838
CONC(=O)c1ccccc1Nc1cc(Nc2cc(C)nn2C(C)C)ncc1Cl,1.76,0.882
CCN(CC)CCNC(=O)c1c(C)[nH]c(/C=C2\C(=O)Nc3ccc(-c4csc(-c5ccccc5)n4)cc32)c1C [Amcasertib (BBI503)],4.58,1
CC(C)[C@H](C(=O)Nc1ccc(C(=O)NO)cc1)c1ccccc1,2.57,0.867
Cc1cccc(CC(=O)N2CCc3c2ccc(-c2cn(C)c4ncnc(N)c24)c3F)n1,1.76,0.759
CN1CC[C@@H](NC(=O)Nc2ccc(C#N)cc2)C[C@@H]1c1nc2ccccc2[nH]1,1.7,0.913
CCc1cnn2c(NCc3ccc[n+]([O-])c3)cc(N3CCCC[C@H]3CCO)nc12,1.54,0.0769
Cn1ncc(Cl)c1-c1cc(C(=O)N[C@H](CN)Cc2cccc(F)c2)sc1Cl,1.8,0.9
Cn1cc(-c2ccc(F)c(C(F)(F)F)c2)nc1C1CCN(c2ncnc3[nH]ncc23)CC1,2.65,0.968
Nc1nc(N)c2nc(-c3cccc(O)c3)c(-c3cccc(O)c3)nc2n1,1.97,0.9
CCOCc1nc2c(N)nc3ccccc3c2n1CC(C)(C)O [Resiquimod],2.13,1.1
CN1CCC(CNc2ccc3ncc(-c4cccc(OC(F)(F)F)c4)n3n2)CC1 [SGI-1776 free base],2.88,1.06
C=CC(=O)Nc1cccc(Oc2nc(Nc3ccc(N4CCN(C)CC4)cc3)nc3ccsc23)c1,2.3,0.593
Cc1cn(-c2cc(NC(=O)c3ccc(C)c(Nc4nccc(-c5cccnc5)n4)c3)cc(C(F)(F)F)c2)cn1 [Nilotinib (AMN-107)],1.8,0.829
Nc1nc(Cl)nc2c1ncn2[C@H]1C[C@H](O)[C@@H](CO)O1 [Cladribine],2.56,1.06
CC#CC(=O)N1CC[C@@H](n2c(=O)n(-c3ccc(Oc4ccccc4)cc3)c3c(N)ncnc32)C1 [ONO-4059 (GS-4059) hydrochloride],3.44,1.28

# Given with bars between the fields: four of the compounds above.
Compound | 'Larvae/adult' ratio [1] | vulvae per adult worm [2]
NC1(c2ccc(-c3nc4ccn5c(=O)[nH]nc5c4cc3-c3ccccc3)cc2)CCC1 | 2 | 1.03
Cc1ccc(C(=O)Nc2ccc(CN3CCN(C)CC3)c(C(F)(F)F)c2)cc1C#Cc1cnc2cccnn12 | 3.6 | 0.2
Cc1[nH]c2ccccc2c1CCNCc1ccc(/C=C/C(=O)NO)cc1 [Panobinostat (LBH589)] | 2.02 | 0.915
CCN(CC)CCCC(C)Nc1c2ccc(Cl)cc2nc2ccc(OC)cc12 (stereo not drawn) [Quinacrine Dihydrochloride Dihydrate] | 5.51 | 0.721
